This data set in a line: Measurement of log P values by HPLC on reversed phase columns (EEC directive 79/831 Annex V.A8). It counts as physicochemical. To be noted: method marked [a].

For two molecules, logP results are on record in patent US9375005B2, “5-halogenopyrazole indanyl carboxamides” (BAYER CROPSCIENCE AG, priority 2012, dated 2016).

Consider `CC1CC(C)c2c(NC(=O)c3c(C(F)F)nn(C)c3Cl)cccc21` (centres unmarked) [Example 43], for which the logP was 3.89[a].
As for `CC1CC(C)c2c(NC(=O)c3c(C(F)F)nn(C)c3Cl)cccc21` (centres unmarked) [Example 96], the logP was 3.69[a].
